# Paper PMC11870507
# Protein sequences, listed by entry. Tags and fused reporters are not part of them. Lines headed by an entry give the natural chain unless they say otherwise; changes in a name come on top.
# UniProt K4DBH0: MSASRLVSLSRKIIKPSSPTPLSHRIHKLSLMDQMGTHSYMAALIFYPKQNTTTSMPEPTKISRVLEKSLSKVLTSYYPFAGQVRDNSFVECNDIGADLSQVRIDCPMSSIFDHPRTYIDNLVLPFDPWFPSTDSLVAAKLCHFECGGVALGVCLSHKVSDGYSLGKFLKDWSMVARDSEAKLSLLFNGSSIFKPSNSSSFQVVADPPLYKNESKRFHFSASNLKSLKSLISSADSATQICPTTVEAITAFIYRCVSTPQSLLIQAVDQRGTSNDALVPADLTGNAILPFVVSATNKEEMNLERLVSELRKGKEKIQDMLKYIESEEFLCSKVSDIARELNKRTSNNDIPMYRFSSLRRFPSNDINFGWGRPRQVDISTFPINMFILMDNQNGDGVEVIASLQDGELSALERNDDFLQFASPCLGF
# UniProt K4D9Y4: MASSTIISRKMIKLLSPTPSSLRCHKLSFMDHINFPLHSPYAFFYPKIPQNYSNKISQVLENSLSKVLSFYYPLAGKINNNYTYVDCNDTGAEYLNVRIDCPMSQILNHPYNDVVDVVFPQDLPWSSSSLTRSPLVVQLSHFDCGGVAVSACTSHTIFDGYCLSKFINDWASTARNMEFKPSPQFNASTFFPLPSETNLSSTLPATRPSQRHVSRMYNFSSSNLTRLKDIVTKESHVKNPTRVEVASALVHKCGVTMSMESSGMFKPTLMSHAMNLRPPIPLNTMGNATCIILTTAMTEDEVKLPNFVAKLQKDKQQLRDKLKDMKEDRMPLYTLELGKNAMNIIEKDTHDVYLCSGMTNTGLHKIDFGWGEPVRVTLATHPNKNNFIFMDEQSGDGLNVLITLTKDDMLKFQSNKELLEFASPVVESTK
# UniProt A0A3Q7EQZ9: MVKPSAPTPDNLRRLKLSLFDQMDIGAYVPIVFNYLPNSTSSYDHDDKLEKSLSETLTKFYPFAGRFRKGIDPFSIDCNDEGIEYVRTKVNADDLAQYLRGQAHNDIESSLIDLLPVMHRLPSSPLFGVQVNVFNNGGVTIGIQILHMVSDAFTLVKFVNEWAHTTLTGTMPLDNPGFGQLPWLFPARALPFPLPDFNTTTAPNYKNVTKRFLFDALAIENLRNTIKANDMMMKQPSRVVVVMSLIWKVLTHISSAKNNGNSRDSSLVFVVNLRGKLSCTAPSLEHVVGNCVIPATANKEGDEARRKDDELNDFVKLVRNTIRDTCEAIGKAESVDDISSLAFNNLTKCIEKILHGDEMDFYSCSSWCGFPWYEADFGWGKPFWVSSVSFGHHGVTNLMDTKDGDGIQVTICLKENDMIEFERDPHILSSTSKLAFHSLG
# UniProt A0A0U3JNE4: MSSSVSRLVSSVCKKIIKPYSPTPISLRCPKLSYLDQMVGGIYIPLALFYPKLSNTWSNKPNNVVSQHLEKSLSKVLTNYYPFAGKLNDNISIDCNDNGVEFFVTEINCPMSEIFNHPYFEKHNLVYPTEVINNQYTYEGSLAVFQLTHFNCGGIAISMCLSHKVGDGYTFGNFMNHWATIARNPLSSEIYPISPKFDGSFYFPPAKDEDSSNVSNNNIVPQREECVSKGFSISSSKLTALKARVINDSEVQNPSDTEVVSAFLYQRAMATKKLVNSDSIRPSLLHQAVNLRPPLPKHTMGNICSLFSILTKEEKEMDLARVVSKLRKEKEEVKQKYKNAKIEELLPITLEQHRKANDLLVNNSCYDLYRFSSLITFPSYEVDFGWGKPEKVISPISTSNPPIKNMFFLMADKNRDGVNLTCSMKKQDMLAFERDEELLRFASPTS
# These are yes or no findings as the source states them, for the method shown. Binding can be weak; no strength is given. For some of these results: Binding seen in cells or lysates may run through a third protein.
# Legend:
# [1] = target: HA-tagged SlASAT1 (Solanum lycopersicum (tomato)) (UniProt K4DBH0); test: co-IP; pairs of HA- and Flag-tagged proteins co-expressed in N. benthamiana leaves; IP with magnetic beads and blot (Supplementary Fig. 10)
# [2] = target: HA-tagged SlASAT1 (Solanum lycopersicum (tomato)) (UniProt K4DBH0); test: SEC; immunoprecipitated SlASAT1-4 complex from N. benthamiana eluted under non-denaturing conditions with HA peptide, Superdex 200 3.2/300, 50 mM Tris-HCl, 150 mM NaCl, pH 7.4; peak fractions blotted with HA and Flag antibodies
# [3] = target: nLUC-SlASAT1 (Solanum lycopersicum (tomato)) (UniProt K4DBH0); test: split reporter; split-luciferase assay quantified (relative luciferase units) with protein extracted from infiltrated N. benthamiana leaves
# [4] = target: nLUC-SlASAT3 (Solanum lycopersicum (tomato)) (UniProt K4D9Y4); test: as above
# [5] = target: nLUC-SlASAT1 (Solanum lycopersicum (tomato)) (UniProt K4DBH0); test: split reporter; split-luciferase complementation imaging of N. benthamiana leaves co-infiltrated with nLUC and cLUC constructs, 48-72 h after infiltration, 0.25 mM coelenterazine sprayed on, luminescence recorded with a Photek 216
# [6] = target: nLUC-SlASAT3 (Solanum lycopersicum (tomato)) (UniProt K4D9Y4); test: as above
binding [1],binding [2],binding [3],binding [4],binding [5],binding [6],Substance
binds,binds,–,–,–,–,Flag-tagged SlASAT4 (from UniProt A0A3Q7EQZ9) (enzyme)
–,–,binds,binds,binds,binds,SlASAT2-cLUC (from UniProt A0A0U3JNE4) (enzyme)
–,–,binds,binds,binds,binds,SlASAT4-cLUC (from UniProt A0A3Q7EQZ9) (enzyme)
